Results are given in words; binding and its absence hold for the method and conditions named. In cells and extracts the contact can be indirect. These calls come from enrichment with a bait or labelling near it, and not all partners need be listed.
T1: YTHDF3 (mouse (endogenous in MEFs)) (UniProt Q8BYK6)
T1 sequence: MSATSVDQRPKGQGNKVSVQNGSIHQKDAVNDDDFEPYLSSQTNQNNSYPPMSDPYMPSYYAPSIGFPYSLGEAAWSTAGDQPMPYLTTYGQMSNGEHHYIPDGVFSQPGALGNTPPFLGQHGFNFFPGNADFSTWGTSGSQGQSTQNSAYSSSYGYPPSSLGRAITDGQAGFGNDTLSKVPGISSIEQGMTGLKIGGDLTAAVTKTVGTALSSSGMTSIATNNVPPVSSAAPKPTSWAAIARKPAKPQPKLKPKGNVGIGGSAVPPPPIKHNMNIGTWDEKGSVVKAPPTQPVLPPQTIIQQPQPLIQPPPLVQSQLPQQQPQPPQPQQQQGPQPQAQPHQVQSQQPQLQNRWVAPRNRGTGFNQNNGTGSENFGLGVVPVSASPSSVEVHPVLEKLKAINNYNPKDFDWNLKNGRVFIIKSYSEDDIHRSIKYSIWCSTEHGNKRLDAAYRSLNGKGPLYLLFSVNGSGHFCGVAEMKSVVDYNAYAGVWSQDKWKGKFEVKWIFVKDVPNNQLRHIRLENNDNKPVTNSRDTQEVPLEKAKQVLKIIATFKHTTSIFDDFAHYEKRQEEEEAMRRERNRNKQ

Sequences of proteins named here, by UniProt entry; tags and fusion partners are left off.
UniProt P53996: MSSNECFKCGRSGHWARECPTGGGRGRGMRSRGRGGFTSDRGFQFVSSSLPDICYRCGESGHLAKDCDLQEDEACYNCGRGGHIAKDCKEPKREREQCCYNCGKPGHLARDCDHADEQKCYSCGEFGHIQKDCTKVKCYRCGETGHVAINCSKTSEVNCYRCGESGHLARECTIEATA
UniProt Q8K4L0: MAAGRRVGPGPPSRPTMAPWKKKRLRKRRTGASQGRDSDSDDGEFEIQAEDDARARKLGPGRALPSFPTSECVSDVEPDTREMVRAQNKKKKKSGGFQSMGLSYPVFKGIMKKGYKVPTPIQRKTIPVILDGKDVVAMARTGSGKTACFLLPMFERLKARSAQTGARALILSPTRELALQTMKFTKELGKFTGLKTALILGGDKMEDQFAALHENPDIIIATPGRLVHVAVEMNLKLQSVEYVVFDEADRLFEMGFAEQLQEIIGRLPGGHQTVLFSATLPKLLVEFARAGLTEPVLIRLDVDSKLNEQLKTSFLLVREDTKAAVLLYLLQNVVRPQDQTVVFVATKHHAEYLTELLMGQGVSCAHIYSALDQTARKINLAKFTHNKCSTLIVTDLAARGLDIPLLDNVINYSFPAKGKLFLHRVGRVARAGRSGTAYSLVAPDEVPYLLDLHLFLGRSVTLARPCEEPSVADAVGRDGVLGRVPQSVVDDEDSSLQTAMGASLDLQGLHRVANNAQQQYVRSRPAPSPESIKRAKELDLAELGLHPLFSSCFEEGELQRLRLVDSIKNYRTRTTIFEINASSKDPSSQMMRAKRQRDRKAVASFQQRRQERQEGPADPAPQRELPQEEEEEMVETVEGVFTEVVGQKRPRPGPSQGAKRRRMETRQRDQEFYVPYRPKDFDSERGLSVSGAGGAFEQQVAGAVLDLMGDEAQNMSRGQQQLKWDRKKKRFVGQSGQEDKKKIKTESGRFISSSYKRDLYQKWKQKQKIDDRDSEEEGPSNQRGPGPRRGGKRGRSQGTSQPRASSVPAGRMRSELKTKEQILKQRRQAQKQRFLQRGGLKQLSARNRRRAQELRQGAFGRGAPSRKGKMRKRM
UniProt Q9Z204: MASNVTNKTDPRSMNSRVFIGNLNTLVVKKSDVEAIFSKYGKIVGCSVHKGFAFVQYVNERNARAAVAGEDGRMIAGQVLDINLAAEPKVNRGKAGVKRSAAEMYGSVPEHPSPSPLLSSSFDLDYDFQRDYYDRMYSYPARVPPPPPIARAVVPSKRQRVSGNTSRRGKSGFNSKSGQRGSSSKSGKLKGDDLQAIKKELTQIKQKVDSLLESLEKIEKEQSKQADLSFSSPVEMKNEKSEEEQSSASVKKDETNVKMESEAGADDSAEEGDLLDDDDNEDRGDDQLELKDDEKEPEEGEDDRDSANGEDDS
UniProt Q8VDM6: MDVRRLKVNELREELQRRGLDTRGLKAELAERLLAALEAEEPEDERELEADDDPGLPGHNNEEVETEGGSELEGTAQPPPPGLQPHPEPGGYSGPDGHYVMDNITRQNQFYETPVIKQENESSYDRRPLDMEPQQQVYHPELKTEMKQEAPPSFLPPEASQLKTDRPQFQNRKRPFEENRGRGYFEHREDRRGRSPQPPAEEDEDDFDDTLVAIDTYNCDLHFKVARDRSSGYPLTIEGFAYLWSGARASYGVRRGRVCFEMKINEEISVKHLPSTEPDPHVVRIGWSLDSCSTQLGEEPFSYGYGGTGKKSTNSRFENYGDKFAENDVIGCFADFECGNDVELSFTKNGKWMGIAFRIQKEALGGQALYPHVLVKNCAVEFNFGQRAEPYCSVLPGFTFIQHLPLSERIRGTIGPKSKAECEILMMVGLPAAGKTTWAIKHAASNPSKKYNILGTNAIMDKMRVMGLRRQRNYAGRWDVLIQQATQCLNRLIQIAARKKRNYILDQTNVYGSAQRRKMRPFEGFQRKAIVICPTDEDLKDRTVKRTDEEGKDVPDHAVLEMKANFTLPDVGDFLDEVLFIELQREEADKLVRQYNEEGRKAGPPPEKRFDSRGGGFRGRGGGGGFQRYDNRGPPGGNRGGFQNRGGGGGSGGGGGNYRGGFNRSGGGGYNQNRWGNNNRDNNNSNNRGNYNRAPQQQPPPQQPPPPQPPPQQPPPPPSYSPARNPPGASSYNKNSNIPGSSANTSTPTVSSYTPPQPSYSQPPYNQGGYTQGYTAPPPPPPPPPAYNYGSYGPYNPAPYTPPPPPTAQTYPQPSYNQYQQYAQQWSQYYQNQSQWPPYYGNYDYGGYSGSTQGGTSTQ
UniProt O88477: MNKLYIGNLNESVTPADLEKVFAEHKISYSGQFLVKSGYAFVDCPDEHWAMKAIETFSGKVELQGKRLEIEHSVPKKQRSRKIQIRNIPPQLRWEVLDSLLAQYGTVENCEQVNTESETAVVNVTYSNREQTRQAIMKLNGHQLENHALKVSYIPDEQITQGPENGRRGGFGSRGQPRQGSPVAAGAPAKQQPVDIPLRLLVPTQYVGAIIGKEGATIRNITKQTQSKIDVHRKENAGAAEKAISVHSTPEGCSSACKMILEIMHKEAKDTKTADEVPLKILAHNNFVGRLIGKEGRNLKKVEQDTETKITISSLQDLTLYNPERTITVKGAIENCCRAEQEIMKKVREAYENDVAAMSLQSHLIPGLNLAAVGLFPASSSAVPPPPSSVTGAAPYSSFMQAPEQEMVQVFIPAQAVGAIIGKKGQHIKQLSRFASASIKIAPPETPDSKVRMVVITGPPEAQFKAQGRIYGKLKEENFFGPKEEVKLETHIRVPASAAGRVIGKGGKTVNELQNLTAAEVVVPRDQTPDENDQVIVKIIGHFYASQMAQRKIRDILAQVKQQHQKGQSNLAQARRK
UniProt Q5SF07: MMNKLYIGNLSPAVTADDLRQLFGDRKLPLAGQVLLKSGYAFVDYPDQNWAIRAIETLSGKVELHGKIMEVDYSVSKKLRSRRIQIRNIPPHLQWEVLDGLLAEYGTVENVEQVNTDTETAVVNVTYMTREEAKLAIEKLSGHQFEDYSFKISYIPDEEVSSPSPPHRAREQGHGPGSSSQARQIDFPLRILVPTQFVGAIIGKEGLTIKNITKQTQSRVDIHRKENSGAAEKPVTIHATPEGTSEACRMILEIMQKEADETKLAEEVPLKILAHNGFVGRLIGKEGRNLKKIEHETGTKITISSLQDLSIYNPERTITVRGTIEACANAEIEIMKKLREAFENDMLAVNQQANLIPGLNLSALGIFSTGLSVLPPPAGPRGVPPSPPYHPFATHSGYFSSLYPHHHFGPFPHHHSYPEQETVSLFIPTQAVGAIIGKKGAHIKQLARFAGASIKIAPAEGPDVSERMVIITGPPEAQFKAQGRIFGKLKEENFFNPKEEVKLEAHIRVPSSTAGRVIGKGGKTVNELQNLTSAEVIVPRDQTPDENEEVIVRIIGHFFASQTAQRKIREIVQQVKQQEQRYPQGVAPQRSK
UniProt Q8BQ46: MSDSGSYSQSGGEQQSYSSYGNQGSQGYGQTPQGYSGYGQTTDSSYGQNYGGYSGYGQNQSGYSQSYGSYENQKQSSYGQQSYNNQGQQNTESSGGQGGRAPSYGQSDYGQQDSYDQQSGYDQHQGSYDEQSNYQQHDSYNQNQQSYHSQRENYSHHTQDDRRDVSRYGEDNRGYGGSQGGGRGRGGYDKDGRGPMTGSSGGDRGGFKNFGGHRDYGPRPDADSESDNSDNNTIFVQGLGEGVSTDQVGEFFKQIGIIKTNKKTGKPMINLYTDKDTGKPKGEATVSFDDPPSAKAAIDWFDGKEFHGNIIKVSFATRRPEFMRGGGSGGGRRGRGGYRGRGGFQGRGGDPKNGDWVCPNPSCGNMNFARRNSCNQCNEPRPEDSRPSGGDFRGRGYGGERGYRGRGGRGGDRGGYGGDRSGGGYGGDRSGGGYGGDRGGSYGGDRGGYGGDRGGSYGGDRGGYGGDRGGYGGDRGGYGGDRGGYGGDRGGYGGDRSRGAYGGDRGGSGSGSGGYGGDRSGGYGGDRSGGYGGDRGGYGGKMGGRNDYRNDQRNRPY
UniProt Q921F2: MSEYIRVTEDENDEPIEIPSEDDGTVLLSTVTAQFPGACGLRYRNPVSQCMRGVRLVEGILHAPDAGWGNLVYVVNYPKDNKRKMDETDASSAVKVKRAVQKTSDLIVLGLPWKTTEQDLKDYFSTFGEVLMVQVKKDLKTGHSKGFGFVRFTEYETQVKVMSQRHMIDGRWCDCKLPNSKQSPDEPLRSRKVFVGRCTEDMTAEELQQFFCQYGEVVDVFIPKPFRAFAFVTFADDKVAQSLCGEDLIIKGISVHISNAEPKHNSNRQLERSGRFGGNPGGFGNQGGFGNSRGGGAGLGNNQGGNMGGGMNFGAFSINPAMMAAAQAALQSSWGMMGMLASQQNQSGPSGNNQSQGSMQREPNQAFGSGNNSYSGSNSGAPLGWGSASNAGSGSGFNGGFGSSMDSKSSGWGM
UniProt P23116: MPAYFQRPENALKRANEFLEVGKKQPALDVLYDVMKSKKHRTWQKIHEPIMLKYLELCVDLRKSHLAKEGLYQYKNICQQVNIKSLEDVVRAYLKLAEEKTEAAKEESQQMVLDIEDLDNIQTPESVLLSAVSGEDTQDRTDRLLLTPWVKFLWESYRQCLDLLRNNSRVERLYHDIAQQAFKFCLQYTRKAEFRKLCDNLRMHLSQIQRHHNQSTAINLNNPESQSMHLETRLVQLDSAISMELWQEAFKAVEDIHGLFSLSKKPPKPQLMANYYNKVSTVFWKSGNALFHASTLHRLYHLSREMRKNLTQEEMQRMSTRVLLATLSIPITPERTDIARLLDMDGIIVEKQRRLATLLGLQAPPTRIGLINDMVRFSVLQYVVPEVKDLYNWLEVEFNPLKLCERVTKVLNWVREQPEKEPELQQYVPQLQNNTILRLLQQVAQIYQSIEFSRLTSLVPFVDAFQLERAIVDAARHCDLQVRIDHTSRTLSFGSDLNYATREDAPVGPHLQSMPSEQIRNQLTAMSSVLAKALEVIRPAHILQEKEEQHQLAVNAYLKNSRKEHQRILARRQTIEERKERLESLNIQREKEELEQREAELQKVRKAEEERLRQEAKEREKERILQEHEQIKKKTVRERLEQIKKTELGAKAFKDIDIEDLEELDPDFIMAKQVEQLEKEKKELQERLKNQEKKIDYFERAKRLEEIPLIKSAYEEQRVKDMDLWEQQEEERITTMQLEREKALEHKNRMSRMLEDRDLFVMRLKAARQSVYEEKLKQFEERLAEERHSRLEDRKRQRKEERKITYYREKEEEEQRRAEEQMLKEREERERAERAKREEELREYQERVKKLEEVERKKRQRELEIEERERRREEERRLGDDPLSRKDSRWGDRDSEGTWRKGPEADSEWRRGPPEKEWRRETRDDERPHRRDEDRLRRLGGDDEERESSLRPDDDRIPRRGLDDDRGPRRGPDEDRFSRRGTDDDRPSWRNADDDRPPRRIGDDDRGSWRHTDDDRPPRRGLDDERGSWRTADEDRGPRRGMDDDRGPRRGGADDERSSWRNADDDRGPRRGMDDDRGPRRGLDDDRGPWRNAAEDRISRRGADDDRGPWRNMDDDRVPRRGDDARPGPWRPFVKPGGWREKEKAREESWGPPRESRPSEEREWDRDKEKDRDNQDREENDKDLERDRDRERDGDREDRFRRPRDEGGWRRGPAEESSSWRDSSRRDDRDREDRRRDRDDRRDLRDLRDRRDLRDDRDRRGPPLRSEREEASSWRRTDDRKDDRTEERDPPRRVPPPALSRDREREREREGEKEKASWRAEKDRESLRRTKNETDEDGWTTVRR
UniProt Q8BGD9: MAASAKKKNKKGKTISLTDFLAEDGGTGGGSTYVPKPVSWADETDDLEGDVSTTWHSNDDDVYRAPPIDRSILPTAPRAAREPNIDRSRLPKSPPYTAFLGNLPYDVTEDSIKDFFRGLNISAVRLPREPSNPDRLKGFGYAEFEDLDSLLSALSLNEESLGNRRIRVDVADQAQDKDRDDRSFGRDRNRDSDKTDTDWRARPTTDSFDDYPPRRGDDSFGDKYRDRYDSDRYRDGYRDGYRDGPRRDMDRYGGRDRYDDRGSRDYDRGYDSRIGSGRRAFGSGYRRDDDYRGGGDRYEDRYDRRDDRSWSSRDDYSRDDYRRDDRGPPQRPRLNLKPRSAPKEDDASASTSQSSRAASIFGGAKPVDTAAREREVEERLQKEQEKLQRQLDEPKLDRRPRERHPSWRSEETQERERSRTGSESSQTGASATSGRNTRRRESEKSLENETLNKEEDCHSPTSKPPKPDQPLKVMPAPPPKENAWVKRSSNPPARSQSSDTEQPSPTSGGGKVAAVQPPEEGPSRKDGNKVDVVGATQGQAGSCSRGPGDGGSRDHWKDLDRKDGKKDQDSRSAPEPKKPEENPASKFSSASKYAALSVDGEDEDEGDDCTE

B1: NOP58 (protein, UniProt Q6DFW4 1-536)
chain: MLVLFETSVGYAIFKVLNEKKLQEVDSLWKEFETPEKANKIVKLKHFEKFQDTAEALAAFTALMEGKINKQLKKVLKKIVKEAHEPLAVADAKLGGVIKEKLNLSCIHSPVVNELMRGIRSQMDGLIPGVEPREMAAMCLGLAHSLSRYRLKFSADKVDTMIVQAISLLDDLDKELNNYIMRCREWYGWHFPELGKIISDNLTYCKCLQKVGDRKNYASASLSEFLSEEVEAEVKAAAEISMGTEVSEEDICNILHLCTQVIEISEYRTQLYEYLQNRMMAIAPNVTVMVGELVGARLIAHAGSLLNLAKHAASTVQILGAEKALFRALKSRRDTPKYGLIYHASLVGQSSPKHKGKISRMLAAKTVLAIRYDAFGEDSSSAMGIENRAKLEARLRILEDRGIRKISGTGKALAKAEKYEHKSEVKTYDPSGDSTLPTCSKKRKIEEVDKEDEITEKKAKKAKIKIKAEVEEEMEEEEAEEEQVVEEEPTVKKKKKKDKKKHIKEEPLSEEEPCTSTAVPSPEKKKKKKKKKDAED
B2: SRSF7 (protein, UniProt Q8BL97 1-267)
chain: MRSSARGRPLQAATAFFLSLFFFLRRFERGFWLWGGDSETKVYVGNLGTGAGKGELERAFSYYGPLRTVWIARNPPGFAFVEFEDPRDAEDAVRGLDGKVICGSRVRVELSTGMPRRSRFDRPPARRPFDPNDRCYECGEKGHYAYDCHRYSRRRRSRSRSRSHSRSRGRRYSRSRSRSRGRRSRSASPRRSRSVSLRRSRSASLRRSRSGSIIGSRYFQSRSRSRSRSRSISRPRSSRSKSRSPSPKRSRSPSGSPHRSASPERMD
B3: RBM39 (protein, UniProt Q8VH51 1-530)
chain: MADDIDIEAMLEAPYKKDENKLNSANGHEERSKKRKKSKSRSRSHERKRSKSKERKRSRDRERKKSKSRERKRSRSKERRRSRSRSRDRRFRGRYRSPYSGPKFNSAIRGKIGLPHSIKLSRRRSRSKSPFRKDKSPVREPIDNLTPEERDARTVFCMQLAARIRPRDLEEFFSTVGKVRDVRMISDRNSRRSKGIAYVEFVDVSSVPLAIGLTGQRVLGVPIIVQASQAEKNRAAAMANNLQKGSAGPMRLYVGSLHFNITEDMLRGIFEPFGRIESIQLMMDSETGRSKGYGFITFSDSECAKKALEQLNGFELAGRPMKVGHVTERTDASSASSFLDSDELERTGIDLGTTGRLQLMARLAEGTGLQIPPAAQQALQMSGSLAFGAVAEFSFVIDLQTRLSQQTEASALAAAASVQPLATQCFQLSNMFNPQTEEEVGWDTEIKDDVIEECNKHGGVIHIYVDKNSAQGNVYVKCPSIAAAIAAVNALHGRWFAGKMITAAYVPLPTYHNLFPDSMTATQLLVPSRR
B4: MBNL1 (protein, UniProt Q9JKP5 1-341)
chain: MAVSVTPIRDTKWLTLEVCREFQRGTCSRPDTECKFAHPSKSCQVENGRVIACFDSLKGRCSRENCKYLHPPPHLKTQLEINGRNNLIQQKNMAMLAQQMQLANAMMPGAPLQPVPMFSVAPSLATSASAAFNPYLGPVSPSLVPAEILPTAPMLVTGNPGVPVPAAAAAAAQKLMRTDRLEVCREYQRGNCNRGENDCRFAHPADSTMIDTNDNTVTVCMDYIKGRCSREKCKYFHPPAHLQAKIKAAQYQVNQAAAAQAAATAAAMGIPQAVLPPLPKRPALEKTNGATAVFNTGIFQYQQALANMQLQQHTAFLPPGSILCMTPATSVDTHNICRTSD
B5: ATXN2 (protein, UniProt O70305 1-1285)
chain: MRSSTAAVQRPAAGDPEPRRPAGWAARRSLPRTARRGGRGGAVAYPSAGPPPRGPGAPPRGPRSPPCASDCFGSNGHGASRPGSRRLLGVCGPPRPFVVVLLALAPAATPARACPPGVRASPPRSGVSSSARPAPGCPRPACEPVYGPLTMSLKPQPQPPAPATGRKPGGGLLSSPGAAPASAAVTSASVVPAPAAPVASSSAAAGGGRPGLGRGRNSSKGLPQPTISFDGIYANVRMVHILTSVVGSKCEVQVKNGGIYEGVFKTYSPKCDLVLDAAHEKSTESSSGPKREEIMESVLFKCSDFVVVQFKDTDSSYARRDAFTDSALSAKVNGEHKEKDLEPWDAGELTASEELELENDVSNGWDPNDMFRYNEENYGVVSTYDSSLSSYTVPLERDNSEEFLKREARANQLAEEIESSAQYKARVALENDDRSEEEKYTAVQRNCSDREGHGPNTRDNKYIPPGQRNREVLSWGSGRQSSPRMGQPGPGSMPSRAASHTSDFNPNAGSDQRVVNGGVPWPSPCPSHSSRPPSRYQSGPNSLPPRAATHTRPPSRPPSRPSRPPSHPSAHGSPAPVSTMPKRMSSEGPPRMSPKAQRHPRNHRVSAGRGSMSSGLEFVSHNPPSEAAAPPVARTSPAGGTWSSVVSGVPRLSPKTHRPRSPRQSSIGNSPSGPVLASPQAGIIPAEAVSMPVPAASPTPASPASNRALTPSIEAKDSRLQDQRQNSPAGSKENVKASETSPSFSKADNKGMSPVVSEHRKQIDDLKKFKNDFRLQPSSTSESMDQLLSKNREGEKSRDLIKDKTEASAKDSFIDSSSSSSNCTSGSSKTNSPSISPSMLSNAEHKRGPEVTSQGVQTSSPACKQEKDDREEKKDTTEQVRKSTLNPNAKEFNPRSFSQPKPSTTPTSPRPQAQPSPSMVGHQQPAPVYTQPVCFAPNMMYPVPVSPGVQPLYPIPMTPMPVNQAKTYRAGKVPNMPQQRQDQHHQSTMMHPASAAGPPIVATPPAYSTQYVAYSPQQFPNQPLVQHVPHYQSQHPHVYSPVIQGNARMMAPPAHAQPGLVSSSAAQFGAHEQTHAMYACPKLPYNKETSPSFYFAISTGSLAQQYAHPNAALHPHTPHPQPSATPTGQQQSQHGGSHPAPSPVQHHQHQAAQALHLASPQQQSAIYHAGLAPTPPSMTPASNTQSPQSSFPAAQQTVFTIHPSHVQPAYTTPPHMAHVPQAHVQSGMVPSHPTAHAPMMLMTTQPPGPKAALAQSALQPIPVSTTAHFPYMTHPSVQAHHQQQL
B6: CSTF2T (protein, UniProt Q8C7E9 1-632)
chain: MSSLAVRDPAMDRSLRSVFVGNIPYEATEEQLKDIFSEVGSVVSFRLVYDRETGKPKGYGFCEYQDQETALSAMRNLNGREFSGRALRVDNAASEKNKEELKSLGPAAPIIDSPYGDPIDPEDAPESITRAVASLPPEQMFELMKQMKLCVQNSHQEARNMLLQNPQLAYALLQAQVVMRIMDPEIALKILHRKIHVTPLIPGKSQPVSGPGPGGPGPSGPGGPGPGPAPGLCPGPNVMLNQQNPPAPQPQHLPRRPVKDIPPLMQTSIQGGIPAPGPIPAAVPGPGPGSLTPGGAMQPQVGMPVVGPVPLERGQMQISDPRPPMPRGPMPSGGIPPRGLLGDAPNDPRGGTLLSVTGEVEPRGYMGPPHQGPPMHHGHDNRGPASHDMRGGPLAADPRMLIGEPRGPMIDQRGLPMDGRGGRESRGMETRPMETEVLEPRGMERRMETCAMETRGMDARGLEMRGPGPSSRGPMTGGIQGPGPINMGAGGPQGPRQVPNIAGVGNPGGTMQGAGIQGGGMQGAGMQGGGMQGAGMQGGGMQGAGMQAGMQGASMQGGMQGAGMQGASKQGGGQPSSFSPGQSQVTPQDQEKAALIMQVLQLTADQIAMLPPEQRQSILILKEQIQKSTGAS
B7: FBL (protein, UniProt P35550 1-327)
chain: MKPGFSPRGGGFGGRGGFGDRGGRGGGRGGRGGFGGGRGGFGGGGRGRGGGGGGFRGRGGGGGRGGGFQSGGNRGRGGGRGGKRGNQSGKNVMVEPHRHEGVFICRGKEDALVTKNLVPGESVYGEKRVSISEGDDKIEYRAWNPFRSKLAAAILGGVDQIHIKPGAKVLYLGAASGTTVSHVSDIVGPDGLVYAVEFSHRSGRDLINLAKKRTNIIPVIEDARHPHKYRMLIAMVDVIFADVAQPDQTRIVALNAHTFLRNGGHFVISIKANCIDSTASAEAVFASEVKKMQQENMKPQEQLTLEPYERDHAVVVGVYRPPPKVKN

The molecules below were run against T1, YTHDF3 (mouse (endogenous in MEFs)) (assay: affinity purification with mass spectrometry; anti-YTHDF3 antibody (sc-377119) crosslinked to Protein A/G Plus Agarose, MEF lysates under normal and nutrient-free conditions, overnight at 4 °C, LC-MS/MS; mouse IgG as control).
CNBP (from UniProt P53996 1-178) was tested, and the binding was “binds”.
For DDX54 (from UniProt Q8K4L0 1-874), the binding was “binds”.
HNRNPC (from UniProt Q9Z204 1-313) was tested, and the binding was “binds”.
With HNRNPUL1 (from UniProt Q8VDM6 1-859) the binding was “binds”.
IGF2BP1 (from UniProt O88477 1-577) was tested, and the binding was “binds”.
With IGF2BP2 (from UniProt Q5SF07 1-592) the binding was “binds”.
With TAF15 (from UniProt Q8BQ46 1-557) the binding was “binds”.
In the case of TARDBP (from UniProt Q921F2 1-414), the binding is reported as “binds”.
With U2AF2 (from UniProt P26369 1-475) the binding was “binds”.
With eIF3a (from UniProt P23116 1-1344) the binding was “binds”.
eIF3d (from UniProt O70194 1-548) was tested, and the binding was “binds”.
With eIF4B (from UniProt Q8BGD9 1-611) the binding was “binds”.

Target: T1, YTHDF3 (mouse (endogenous in MEFs))
Experiment: as above
Remark: another data set of the same source
B1 was tested, and the binding was “binds”.
In the case of B2, the binding is reported as “binds”.
With B3 the binding was “binds”.
With B4 the binding was “binds”.
In the case of B5, the binding is reported as “binds”.
For B6, the binding was “binds”.
With B7 the binding was “binds”.

Source: paper PMC9532426, “Autophagy induction promoted by m6A reader YTHDF3 through translation upregulation of FOXO3 mRNA”
